{"source": "PubChem BioAssay AID1259254 (NCATS, 2017)", "screen": "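Finding genes that stop cells copying their DNA twice in one cycle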 (primary screen)", "cell system": "human HCT116 colorectal cancer cells", "knock-down reagent": "single siRNA against human genes", "duration": "3 days", "read-out": "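Imaged Hoechst DNA stain sorts each cell into a cycle phase by DNA amount; per plate, G2 fraction set to 0% for non-targeting and 100% for GMNN siRNA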", "scale": "G2 robust z-score and G2 cells, % of GMNN control: higher = more G2 cells, more excess DNA replication", "active means": "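Active siRNAs have a G2 robust z of 5 or more median absolute deviations over the median, which in these data means about 38% or higher of GMNN control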", "note": "In all, the deposit lists about 59,000 reagents; below is an unselected part. About 1,550 of all reagents (2.6%) count as active. 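G2 share is only a proxy for re-replication; each gene was hit by three separate siRNAs, and active genes were retested.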 Entries without a mark were called inactive. The numbers tell different reagents against one gene apart. Not all columns of the deposit are shown. Not given: the amount of reagent."}
{"target": "LINC02226 (GeneID 729506)", "siRNA no.": 1, "G2 robust z-score": 0.959, "G2 cells, % of GMNN control": 9.71}
{"target": "LINC02226 (GeneID 729506)", "siRNA no.": 2, "G2 robust z-score": 0.599, "G2 cells, % of GMNN control": 7.18}
{"target": "LINC02226 (GeneID 729506)", "siRNA no.": 3, "G2 robust z-score": -0.659, "G2 cells, % of GMNN control": -1.67}
{"target": "CPSF3 (GeneID 51692)", "siRNA no.": 1, "G2 robust z-score": -0.728, "G2 cells, % of GMNN control": -2.15}
{"target": "CPSF3 (GeneID 51692)", "siRNA no.": 2, "G2 robust z-score": 2.6, "G2 cells, % of GMNN control": 21.3}
{"target": "CPSF3 (GeneID 51692)", "siRNA no.": 3, "G2 robust z-score": 0.696, "G2 cells, % of GMNN control": 7.86}
{"target": "NAXE (GeneID 128240)", "siRNA no.": 1, "G2 robust z-score": 1.4, "G2 cells, % of GMNN control": 12.9}
{"target": "NAXE (GeneID 128240)", "siRNA no.": 2, "G2 robust z-score": 1.96, "G2 cells, % of GMNN control": 16.8}
{"target": "NAXE (GeneID 128240)", "siRNA no.": 3, "G2 robust z-score": -0.658, "G2 cells, % of GMNN control": -1.67}
{"target": "ADTRP (GeneID 84830)", "siRNA no.": 1, "G2 robust z-score": 4.79, "G2 cells, % of GMNN control": 36.7}
{"target": "ADTRP (GeneID 84830)", "siRNA no.": 2, "G2 robust z-score": -0.875, "G2 cells, % of GMNN control": -3.19}
{"target": "ADTRP (GeneID 84830)", "siRNA no.": 3, "G2 robust z-score": -0.124, "G2 cells, % of GMNN control": 2.09}
{"target": "CBY1 (GeneID 25776)", "siRNA no.": 1, "G2 robust z-score": 0.572, "G2 cells, % of GMNN control": 6.99}
{"target": "CBY1 (GeneID 25776)", "siRNA no.": 2, "G2 robust z-score": -0.699, "G2 cells, % of GMNN control": -1.95}
{"target": "CBY1 (GeneID 25776)", "siRNA no.": 3, "G2 robust z-score": -0.787, "G2 cells, % of GMNN control": -2.57}
{"target": "LPCAT1 (GeneID 79888)", "siRNA no.": 1, "G2 robust z-score": "8.6 (active)", "G2 cells, % of GMNN control": 63.5}
{"target": "LPCAT1 (GeneID 79888)", "siRNA no.": 2, "G2 robust z-score": -0.256, "G2 cells, % of GMNN control": 1.16}
{"target": "LPCAT1 (GeneID 79888)", "siRNA no.": 3, "G2 robust z-score": 0.184, "G2 cells, % of GMNN control": 4.26}
{"target": "POU2AF1 (GeneID 5450)", "siRNA no.": 1, "G2 robust z-score": 0.338, "G2 cells, % of GMNN control": 5.34}
{"target": "POU2AF1 (GeneID 5450)", "siRNA no.": 2, "G2 robust z-score": -1.06, "G2 cells, % of GMNN control": -4.51}
{"target": "POU2AF1 (GeneID 5450)", "siRNA no.": 3, "G2 robust z-score": -0.0798, "G2 cells, % of GMNN control": 2.41}
{"target": "HVCN1 (GeneID 84329)", "siRNA no.": 1, "G2 robust z-score": 0.4, "G2 cells, % of GMNN control": 5.78}
{"target": "HVCN1 (GeneID 84329)", "siRNA no.": 2, "G2 robust z-score": 0.201, "G2 cells, % of GMNN control": 4.38}
{"target": "HVCN1 (GeneID 84329)", "siRNA no.": 3, "G2 robust z-score": -0.705, "G2 cells, % of GMNN control": -1.99}
